According to US6797511:
These are yes or no findings as the source states them, for the method shown. Some results given as binding are weak or reduced against the parent protein; the word gives no strength.

Sequences of proteins named here, by UniProt entry; tags and fusion partners are left off. A change or cut given only in a name is not applied to a line headed by its entry.
UniProt P04386: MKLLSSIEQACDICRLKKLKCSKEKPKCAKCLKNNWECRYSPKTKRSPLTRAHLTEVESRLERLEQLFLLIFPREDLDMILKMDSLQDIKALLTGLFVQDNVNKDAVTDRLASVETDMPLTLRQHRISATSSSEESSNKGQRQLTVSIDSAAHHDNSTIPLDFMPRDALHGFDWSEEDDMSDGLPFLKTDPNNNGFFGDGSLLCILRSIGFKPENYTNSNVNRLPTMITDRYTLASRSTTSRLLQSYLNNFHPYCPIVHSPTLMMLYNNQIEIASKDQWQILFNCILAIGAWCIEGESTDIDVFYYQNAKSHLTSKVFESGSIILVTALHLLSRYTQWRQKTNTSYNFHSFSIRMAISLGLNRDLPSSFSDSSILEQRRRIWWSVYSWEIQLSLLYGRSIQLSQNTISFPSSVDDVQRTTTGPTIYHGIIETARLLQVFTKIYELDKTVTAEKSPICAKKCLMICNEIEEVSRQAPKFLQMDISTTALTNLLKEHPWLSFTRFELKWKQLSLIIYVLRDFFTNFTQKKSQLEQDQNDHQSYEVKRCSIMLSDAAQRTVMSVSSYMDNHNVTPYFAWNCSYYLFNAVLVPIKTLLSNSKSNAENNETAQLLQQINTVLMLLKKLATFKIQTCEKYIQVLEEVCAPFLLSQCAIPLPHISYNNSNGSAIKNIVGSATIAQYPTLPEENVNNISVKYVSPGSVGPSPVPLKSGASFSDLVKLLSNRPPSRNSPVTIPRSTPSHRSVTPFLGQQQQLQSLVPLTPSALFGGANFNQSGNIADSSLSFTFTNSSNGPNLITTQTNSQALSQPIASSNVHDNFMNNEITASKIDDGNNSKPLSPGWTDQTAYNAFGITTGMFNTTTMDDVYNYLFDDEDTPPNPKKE

Biological target: Loop construct: presenilin 1 loop region (amino acids 260-400) in vector pAS2-1 (UniProt P04386)
Assay: yeast two-hybrid, Loop region bait against human brain cDNA library

binding: binds
B1: ALARM captured protein as expressed from the human brain Matchmaker cDNA library in the yeast two-hybrid assay (protein, not shown: large carriers)
chain: MRSLSQSQGVPLPPAHTGTYRTSTAPSSPGVDSVPLQRTGSQHGPQNAAAATFQRASYAAGPASNYADPYRQLQYCPSVESPYSKSGPALPPEGTLARSPSIDSIQKDPREFGWRDPELPEVIQMLQHQFPSVQSNAAAYLQHLCFGDNKIKAEIRRQGGIQLLVDLLDHRMTEVHRSACGALRNLVYGKANDDNKIALKNCGGIPALVRLLRKTTDLEIRELVTGVLWNLSSCDALKMPIIQDALAVLTNAVIIPHSGWENSPLQDDRKIQLHSSQVLRNATGCLRNVSSPGEEARRRMRECDGLTDALLYVIQSALGSSEIDSKTVENCVCILRNLSYRLAAETSQGQHMGTDELDGLLCGEANGKDAESSGCWGKKKKKKKSQDQWDGVGPLPDCAEPPKGIQMLWHPSIVKPYLTLLSECSNPDTLEGAAGALQNLAAGSWKWSVYIRAAVRKEKGRPILVELLRIDNDRVACAVATALRNMALDVRNKELIGKYAMRDLVHRLPGGNNSNNTASKAMSDDTVTAVCCTLHEVITKNMENAKALRDAGGIEKLVGISKSKGDKHSPKVVKAASQVLNSMWQYRDLRSLYKKDGWSQYHFVASSSTIERDRQRPYSSSRTPSISPVRVSPNNRSASAPASPREMISLKERKTDYECTGSNATYHGAKGEHTSRKDAMTAQNTGISTLYRNSTRNYDESFFEDQVHHRPPASEYTMHLGLKSTGNYVDFYSAARPYSELNYETSHYPASPDSWV
